For one substance, binding results are on record in paper PMC11161652, “ASXLs binding to the PHD2/3 fingers of MLL4 provides a mechanism for the recruitment of BAP1 to active enhancers” (Nature Communications, 2024).

By UniProt entry, the sequences of proteins in these tests, tags left out. Where a name states a change or a piece, a line headed by the entry shows the natural chain unless it says otherwise. Residues count along the entry.
UniProt O14686, residues 227-324: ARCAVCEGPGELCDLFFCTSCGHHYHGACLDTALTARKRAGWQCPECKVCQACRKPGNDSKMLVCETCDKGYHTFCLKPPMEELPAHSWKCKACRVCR
UniProt Q76L83: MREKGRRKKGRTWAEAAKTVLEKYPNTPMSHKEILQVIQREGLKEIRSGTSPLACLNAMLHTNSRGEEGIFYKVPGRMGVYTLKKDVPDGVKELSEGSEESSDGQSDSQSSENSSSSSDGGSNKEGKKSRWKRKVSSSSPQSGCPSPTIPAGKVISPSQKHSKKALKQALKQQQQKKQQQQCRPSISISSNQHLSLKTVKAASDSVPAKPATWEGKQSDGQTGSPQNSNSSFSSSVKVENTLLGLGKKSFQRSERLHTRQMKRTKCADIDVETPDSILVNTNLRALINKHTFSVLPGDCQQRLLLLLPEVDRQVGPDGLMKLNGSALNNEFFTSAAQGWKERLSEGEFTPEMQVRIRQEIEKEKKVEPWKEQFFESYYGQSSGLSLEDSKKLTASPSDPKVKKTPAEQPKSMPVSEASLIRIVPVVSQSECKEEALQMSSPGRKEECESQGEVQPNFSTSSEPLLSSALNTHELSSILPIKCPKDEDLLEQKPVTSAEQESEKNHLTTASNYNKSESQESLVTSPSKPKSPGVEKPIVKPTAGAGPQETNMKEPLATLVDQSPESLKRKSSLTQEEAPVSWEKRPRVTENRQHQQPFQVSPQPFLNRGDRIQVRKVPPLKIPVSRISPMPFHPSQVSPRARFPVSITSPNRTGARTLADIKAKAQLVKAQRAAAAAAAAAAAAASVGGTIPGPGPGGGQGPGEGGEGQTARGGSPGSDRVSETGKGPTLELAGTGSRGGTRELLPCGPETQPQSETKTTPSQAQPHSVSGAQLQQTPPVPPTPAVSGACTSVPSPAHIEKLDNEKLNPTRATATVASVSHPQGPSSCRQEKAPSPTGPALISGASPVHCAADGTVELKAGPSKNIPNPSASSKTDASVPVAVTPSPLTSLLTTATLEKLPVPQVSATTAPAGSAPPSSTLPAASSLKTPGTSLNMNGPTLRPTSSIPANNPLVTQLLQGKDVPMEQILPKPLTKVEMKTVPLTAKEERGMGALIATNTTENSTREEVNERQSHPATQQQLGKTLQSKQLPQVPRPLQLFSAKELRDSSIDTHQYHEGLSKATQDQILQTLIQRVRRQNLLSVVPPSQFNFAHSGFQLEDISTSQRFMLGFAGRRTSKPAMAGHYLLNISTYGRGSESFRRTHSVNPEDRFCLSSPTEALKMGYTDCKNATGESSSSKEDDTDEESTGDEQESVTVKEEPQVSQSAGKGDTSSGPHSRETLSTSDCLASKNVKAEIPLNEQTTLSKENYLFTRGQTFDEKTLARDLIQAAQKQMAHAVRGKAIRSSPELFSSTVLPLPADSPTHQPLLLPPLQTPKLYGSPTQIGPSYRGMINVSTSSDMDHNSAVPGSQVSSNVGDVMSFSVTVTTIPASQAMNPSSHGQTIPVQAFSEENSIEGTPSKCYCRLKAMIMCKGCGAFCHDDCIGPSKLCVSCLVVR

These are yes or no findings as the source states them, for the method shown. Binding seen in cells or lysates may run through a third protein. For some assays here: Where a sequence is shown, tags or fusion partners need not be part of it.

Assay [1] addresses T1, GST-MLL3_(PHD2/3), wild type (human) (UniProt Q8NEZ4).
T1 sequence: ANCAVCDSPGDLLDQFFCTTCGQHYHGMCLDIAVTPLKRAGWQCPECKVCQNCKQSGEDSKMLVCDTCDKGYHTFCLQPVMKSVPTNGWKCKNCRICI
The assay is described as follows: pull-down; about 9 μg GST-MLL3 PHD2/3 or GST-MLL4 PHD2/3 (WT or mutants) on GSH resin, incubated 3 h at 4 °C with lysate of HEK293FT cells expressing Myc-ASXL1, Myc-ASXL2 or Myc-ASXL2ΔMBH; 5 washes; western blot; only the target purified. (A western blot detects proteins with antibodies after separation by electrophoresis.)

Assay [2] deals with GST-MLL4_(PHD2/3), wild type (human) (UniProt O14686). The description is as above.

Take Myc-ASXL2ΔMBH (from UniProt Q76L83): the binding entry in assay [1] and in assay [2] was “no binding” in each case.
